No constants are given. Whether binding was seen depends on the method and setting. Binding seen in cells or lysates may run through a third protein. Some binding calls cover weakened binding; strength is not graded here. Where a sequence is shown, tags or fusion partners need not be part of it.
Target: T1, melanopsin fused to the C-terminal fragment of click beetle luciferase (UniProt Q9UHM6)
T1 sequence: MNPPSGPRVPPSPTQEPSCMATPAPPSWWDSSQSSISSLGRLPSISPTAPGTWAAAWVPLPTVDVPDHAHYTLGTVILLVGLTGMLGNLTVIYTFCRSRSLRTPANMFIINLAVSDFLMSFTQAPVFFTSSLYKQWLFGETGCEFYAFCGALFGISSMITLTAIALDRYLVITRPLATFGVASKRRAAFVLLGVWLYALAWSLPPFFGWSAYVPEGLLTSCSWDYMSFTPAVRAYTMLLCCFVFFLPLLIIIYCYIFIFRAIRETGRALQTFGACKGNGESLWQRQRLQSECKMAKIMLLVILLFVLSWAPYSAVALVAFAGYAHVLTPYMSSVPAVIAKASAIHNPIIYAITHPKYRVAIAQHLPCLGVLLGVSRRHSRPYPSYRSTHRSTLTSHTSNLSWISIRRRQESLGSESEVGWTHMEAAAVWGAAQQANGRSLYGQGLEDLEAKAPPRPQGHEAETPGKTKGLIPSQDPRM
Assay: split reporter; split click beetle luciferase: opsin-ElucC and ElucN-β-arrestin in HEK293 cells (stable expression for JellyOp and F112A), 10 uM 9-cis retinal, dark against white room light 0.1 mW cm^-2, luminescence on a plate reader

Amino acid sequences for entries named in this document (tags omitted).
UniProt P49407: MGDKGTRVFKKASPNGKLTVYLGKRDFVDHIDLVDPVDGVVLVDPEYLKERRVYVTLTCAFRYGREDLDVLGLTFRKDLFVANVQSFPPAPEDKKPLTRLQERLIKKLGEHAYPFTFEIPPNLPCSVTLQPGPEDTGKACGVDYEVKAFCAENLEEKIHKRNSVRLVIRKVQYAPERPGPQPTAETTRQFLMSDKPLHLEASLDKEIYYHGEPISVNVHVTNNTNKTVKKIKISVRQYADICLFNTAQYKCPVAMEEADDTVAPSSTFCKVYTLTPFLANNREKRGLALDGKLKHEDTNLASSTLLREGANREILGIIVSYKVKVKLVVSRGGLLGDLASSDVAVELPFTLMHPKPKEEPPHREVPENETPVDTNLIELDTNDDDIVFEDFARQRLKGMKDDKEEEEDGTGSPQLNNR
UniProt P32121: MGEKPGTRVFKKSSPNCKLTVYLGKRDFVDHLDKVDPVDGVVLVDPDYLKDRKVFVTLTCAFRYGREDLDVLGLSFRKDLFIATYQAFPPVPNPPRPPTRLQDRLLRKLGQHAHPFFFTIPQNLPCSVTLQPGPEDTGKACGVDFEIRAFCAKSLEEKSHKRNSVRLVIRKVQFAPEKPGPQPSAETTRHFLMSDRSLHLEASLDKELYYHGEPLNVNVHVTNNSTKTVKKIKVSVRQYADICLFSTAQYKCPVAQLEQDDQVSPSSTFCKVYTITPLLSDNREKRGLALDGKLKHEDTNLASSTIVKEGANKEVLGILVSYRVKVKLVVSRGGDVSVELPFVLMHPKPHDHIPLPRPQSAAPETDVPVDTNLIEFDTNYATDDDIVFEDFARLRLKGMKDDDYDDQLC

| binding | Substance |
| --- | --- |
| binds | ElucN-β-arrestin 1 (N-terminal luciferase fragment fused to the N-terminus of β-arrestin 1) (from UniProt P49407 1-418) |
| binds | ElucN-β-arrestin 2 (N-terminal luciferase fragment fused to the N-terminus of β-arrestin 2) (from UniProt P32121 1-409) |

Reference: publication PMC5430609
